Test results as given in the supplement of paper PMC6445147.
Values scatter widely in this assay.

B1: human tRNA-Pro; a variant is named by its letters at N, in order (parent)
chain: GGCTCGTTGGTCTAGNGGTATGATTCTCGCTTAGGGTGCGAGAGGTCCCGGGTTCNNATCCCGGACGAGCCC

Key:
[1] = variants of: B1; assay: tRNA Pol-III promoter activity, log2 (circRNA frequency / plasmid DNA frequency) (log2 ratio); higher = stronger promoter activity; settings: HEK293T; construct: no Pol-II promoter ((-)CMV library)
[2] = variants of: B1; assay: tRNA 3' processing efficiency (processed reads / all reads, maximum-likelihood estimate) (fraction); higher = more efficient 3' processing; settings: HEK293T; construct: no Pol-II promoter ((-)CMV library)

Row | Variant | tRNA Pol-III promoter activity (log2) [1] | tRNA 3' processing efficiency [2]
1 | GGCTCGTTGGTCTAGGGGTATGATTCTCGCTTAGGGTGCGAGAGGTCCCGGGTTCGATGCCCGGACGAGCCC [GGA A58T T59G] | 2.94 | 0.25
2 | GGCTCGTTGGTCTAGGGGTATGATTCTCGCTTAGGGTGCGAGAGGTCCCGGGTTCGATACCCGGACGAGCCC [GGA A58T T59A] | 4.09 | 0.36
3 | GGCTCGTTGGTCTAGGGGTATGATTCTCGCTTAGGGTGCGAGAGGTCCCGGGTTCGAGTCCCGGACGAGCCC [GGA A58G] | 0.0251 | 0.23
4 | GGCTCGTTGGTCTAGGGGTATGATTCTCGCTTAGGGTGCGAGAGGTCCCGGGTTCGACTCCCGGACGAGCCC [GGA A58C] | -0.574 | 0.5
5 | GGCTCGTTGGTCTAGGGGTATGATTCTCGCTTAGGGTGCGAGAGGTCCCGGGTTCGATTCCCGGACGAGCCC [GGA A58T] | -0.388 | 0.66
6 | GGCTCGTTGGTCTAGGGGTGTGATTCTCGCTTAGGGTGCGAGAGGTCCCGGGTACGAATCCCGGACGAGCCC [GGA A20G T54A] | 4.03 | 0.17
7 | GGCTCGTTGGTCTAGGGGTTTGATTCTCGCTTAGGGTGCGAGAGGTCCCGGGGTCGAATCCCGGACGAGCCC [GGA A20T T53G] | 4.49 | 0.5
8 | GGCTCGTTGGTCTAGGGGTTTGATTCTCGCTTAGGGTGCGAGAGGTCCCGGGTACGAATCCCGGACGAGCCC [GGA A20T T54A] | 3.62 | 0.25
9 | GGCTCGTTGGTCTAGGGGTTTGATTCTCGCTTAGGGTGCGAGAGGTCCCGGGTTCGAACCCCGGACGAGCCC [GGA A20T T59C] | 3.22 | 0.31
10 | GGCTCGTTGGTCTAGGGGTATGATTCTCGCTTAGGGTGCGAGAGGTCCCGGGTTCGAGACCCGGACGAGCCC [GGA A58G T59A] | 4.2 | 0.25
11 | GGCTCGTTGGTCTAGAGGTATGATTCTCGCTTAGGGTGCGAGAGGTCCCGGGTTCGATTCCCGGACGAGCCC [AGA A58T] | 1.57 | 0.25
12 | GGCTCGTTGGTCTAGAGGTATGATTCTCGCTTAGGGTGCGAGAGGTCCCGGGTTTGAATCCCGGACGAGCCC [AGA C55T] | 3.3 | 0.17
13 | GGCTCGTTGGTCTAGAGGTATGATTCTCGCTTAGGGTGCGAGAGGTCCCGGGTTAGAATCCCGGACGAGCCC [AGA C55A] | 5.26 | 0.4
14 | GGCTCGTTGGTCTAGGGGTGTGATTCTCGCTTAGGGTGCGAGAGGTCCCGGGTTCGAATCCCGGACGAGCCC [GGA A20G] | 0.694 | 0.62
15 | GGCTCGTTGGTCTAGGGGTCTGATTCTCGCTTAGGGTGCGAGAGGTCCCGGGTTCGAATCCCGGACGAGCCC [GGA A20C] | -0.0318 | 0.75
16 | GGCTCGTTGGTCTAGGGGTTTGATTCTCGCTTAGGGTGCGAGAGGTCCCGGGTTTGAATCCCGGACGAGCCC [GGA A20T C55T] | 3.77 | 0.2
17 | GGCTCGTTGGTCTAGCGGTATGATTCTCGCTTAGGGTGCGAGAGGTCCCGGGTTAGAATCCCGGACGAGCCC [CGA C55A] | 2.86 | 0.25
18 | GGCTCGTTGGTCTAGCGGTATGATTCTCGCTTAGGGTGCGAGAGGTCCCGGGTTGGAATCCCGGACGAGCCC [CGA C55G] | 5.16 | 0.07
19 | GGCTCGTTGGTCTAGCGGTATGATTCTCGCTTAGGGTGCGAGAGGTCCCGGGTTTGAATCCCGGACGAGCCC [CGA C55T] | 4.58 | 0.32

Row | Variant | tRNA Pol-III promoter activity (log2) [1] | tRNA 3' processing efficiency [2]
20 | GGCTCGTTGGTCTAGGGGTGTGATTCTCGCTTAGGGTGCGAGAGGTCCCGGGTTCGAACCCCGGACGAGCCC [GGA A20G T59C] | 4.3 | 0.67
21 | GGCTCGTTGGTCTAGCGGTGTGATTCTCGCTTAGGGTGCGAGAGGTCCCGGGTTGGAATCCCGGACGAGCCC [CGA A20G C55G] | 3.25 | 0.2
22 | GGCTCGTTGGTCTAGGGGTATGATTCTCGCTTAGGGTGCGAGAGGTCCCGGGTTCGACGCCCGGACGAGCCC [GGA A58C T59G] | 4.03 | 0.13
23 | GGCTCGTTGGTCTAGGGGTATGATTCTCGCTTAGGGTGCGAGAGGTCCCGGGTTGGATTCCCGGACGAGCCC [GGA C55G A58T] | 2.92 | 0.5
24 | GGCTCGTTGGTCTAGGGGTATGATTCTCGCTTAGGGTGCGAGAGGTCCCGGGTTGGACTCCCGGACGAGCCC [GGA C55G A58C] | 3.13 | 0.25
25 | GGCTCGTTGGTCTAGGGGTATGATTCTCGCTTAGGGTGCGAGAGGTCCCGGGTTGGAGTCCCGGACGAGCCC [GGA C55G A58G] | 2.4 | 0.38
26 | GGCTCGTTGGTCTAGTGGTATGATTCTCGCTTAGGGTGCGAGAGGTCCCGGGTTCGAGTCCCGGACGAGCCC [TGA A58G] | 8.13 | 0.99
27 | GGCTCGTTGGTCTTGGGGTATGATTCTCGCTTAGGGTGCGAGAGGTCCCGGGATCGAACCCCGGACGAGCCC [GGA A14T T53A T59C] | 6.64 | 0.69
28 | GGCTCGTTGGTCTTGGGGTATGATTCTCGCTTAGGGTGCGAGAGGTCCCGGGGTCGAATCCCGGACGAGCCC [GGA A14T T53G] | 3.77 | 0.2
29 | GGCTCGTTGGTCTAGGGGTGTGATTCTCGCTTAGGGTGCGAGAGGTCCCGGGTTCGATGCCCGGACGAGCCC [GGA A20G A58T T59G] | 7.43 | 0.38
30 | GGCTCGTTGGTCTAGGGGTGTGATTCTCGCTTAGGGTGCGAGAGGTCCCGGGTTTGAATCCCGGACGAGCCC [GGA A20G C55T] | 2.13 | 0.25
31 | GGCTCGTTGGTCTAGGGGTATGATTCTCGCTTAGGGTGCGAGAGGTCCCGGGTTGGAATCCCGGACGAGCCC [GGA C55G] | 1.21 | 0.19
32 | GGCTCGTTGGTCTAGGGGTATGATTCTCGCTTAGGGTGCGAGAGGTCCCGGGTTAGAATCCCGGACGAGCCC [GGA C55A] | 1.29 | 0.31
33 | GGCTCGTTGGTCTAGGGGTATGATTCTCGCTTAGGGTGCGAGAGGTCCCGGGTTTGAATCCCGGACGAGCCC [GGA C55T] | 0.54 | 0.9
34 | GGCTCGTTGGTCTTGGGGTATGATTCTCGCTTAGGGTGCGAGAGGTCCCGGGTTCGAACCCCGGACGAGCCC [GGA A14T T59C] | 4.49 | 0.23
35 | GGCTCGTTGGTCTTGGGGTATGATTCTCGCTTAGGGTGCGAGAGGTCCCGGGTTCGAAGCCCGGACGAGCCC [GGA A14T T59G] | 1.42 | 0.25
36 | GGCTCGTTGGTCTAGGGGTGTGATTCTCGCTTAGGGTGCGAGAGGTCCCGGGTTCGACTCCCGGACGAGCCC [GGA A20G A58C] | 4.94 | 0.5
37 | GGCTCGTTGGTCTTGGGGTATGATTCTCGCTTAGGGTGCGAGAGGTCCCGGGTACGAATCCCGGACGAGCCC [GGA A14T T54A] | 3.91 | 0.55
38 | GGCTCGTTGGTCTAGGGGTCTGATTCTCGCTTAGGGTGCGAGAGGTCCCGGGTACGAATCCCGGACGAGCCC [GGA A20C T54A] | 4.03 | 0.5

3 entries picked at random from the list so far:
Row | Variant | tRNA Pol-III promoter activity (log2) [1] | tRNA 3' processing efficiency [2]
34 | GGCTCGTTGGTCTTGGGGTATGATTCTCGCTTAGGGTGCGAGAGGTCCCGGGTTCGAACCCCGGACGAGCCC [GGA A14T T59C] | 4.49 | 0.23
29 | GGCTCGTTGGTCTAGGGGTGTGATTCTCGCTTAGGGTGCGAGAGGTCCCGGGTTCGATGCCCGGACGAGCCC [GGA A20G A58T T59G] | 7.43 | 0.38
26 | GGCTCGTTGGTCTAGTGGTATGATTCTCGCTTAGGGTGCGAGAGGTCCCGGGTTCGAGTCCCGGACGAGCCC [TGA A58G] | 8.13 | 0.99
